These results are taken from publication PMC9938189.

These are yes or no findings as the source states them, for the method shown. Binding seen in cells or lysates may run through a third protein. Some binding calls cover weakened binding; strength is not graded here.

The test deals with T1, phosphoglycerate kinase 1 (PGK1) (human (endogenous in PC cell lines)) (UniProt P00558).
T1 sequence: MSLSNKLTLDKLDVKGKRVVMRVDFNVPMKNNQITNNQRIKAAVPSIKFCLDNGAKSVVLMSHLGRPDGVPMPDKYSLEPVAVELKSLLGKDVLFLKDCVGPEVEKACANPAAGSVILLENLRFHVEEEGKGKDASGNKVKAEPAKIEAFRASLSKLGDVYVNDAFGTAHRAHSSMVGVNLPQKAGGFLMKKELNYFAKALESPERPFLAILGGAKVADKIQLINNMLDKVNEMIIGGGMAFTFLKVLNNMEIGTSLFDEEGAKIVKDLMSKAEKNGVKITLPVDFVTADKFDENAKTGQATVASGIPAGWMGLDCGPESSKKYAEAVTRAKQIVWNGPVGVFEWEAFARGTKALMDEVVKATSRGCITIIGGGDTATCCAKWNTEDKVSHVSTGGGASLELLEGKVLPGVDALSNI
Kind of test: co-IP; whole cell lysates incubated with primary antibodies against KIF15/USP10/PGK1 or normal IgG at 4 °C overnight, protein A/G agarose beads 2 h, three washes with ice-cold lysis buffer, immunoblot. On the technique in general: A western blot detects proteins with antibodies after separation by electrophoresis.

B1: kinesin 12 (KIF15) (protein, UniProt Q9NS87 1-1388)
chain: MAPGCKTELRSVTNGQSNQPSNEGDAIKVFVRIRPPAERSGSADGEQNLCLSVLSSTSLRLHSNPEPKTFTFDHVADVDTTQESVFATVAKSIVESCMSGYNGTIFAYGQTGSGKTFTMMGPSESDNFSHNLRGVIPRSFEYLFSLIDREKEKAGAGKSFLCKCSFIEIYNEQIYDLLDSASAGLYLREHIKKGVFVVGAVEQVVTSAAEAYQVLSGGWRNRRVASTSMNRESSRSHAVFTITIESMEKSNEIVNIRTSLLNLVDLAGSERQKDTHAEGMRLKEAGNINRSLSCLGQVITALVDVGNGKQRHVCYRDSKLTFLLRDSLGGNAKTAIIANVHPGSRCFGETLSTLNFAQRAKLIKNKAVVNEDTQGNVSQLQAEVKRLKEQLAELASGQTPPESFLTRDKKKTNYMEYFQEAMLFFKKSEQEKKSLIEKVTQLEDLTLKKEKFIQSNKMIVKFREDQIIRLEKLHKESRGGFLPEEQDRLLSELRNEIQTLREQIEHHPRVAKYAMENHSLREENRRLRLLEPVKRAQEMDAQTIAKLEKAFSEISGMEKSDKNQQGFSPKAQKEPCLFANTEKLKAQLLQIQTELNNSKQEYEEFKELTRKRQLELESELQSLQKANLNLENLLEATKACKRQEVSQLNKIHAETLKIITTPTKAYQLHSRPVPKLSPEMGSFGSLYTQNSSILDNDILNEPVPPEMNEQAFEAISEELRTVQEQMSALQAKLDEEEHKNLKLQQHVDKLEHHSTQMQELFSSERIDWTKQQEELLSQLNVLEKQLQETQTKNDFLKSEVHDLRVVLHSADKELSSVKLEYSSFKTNQEKEFNKLSERHMHVQLQLDNLRLENEKLLESKACLQDSYDNLQEIMKFEIDQLSRNLQNFKKENETLKSDLNNLMELLEAEKERNNKLSLQFEEDKENSSKEILKVLEAVRQEKQKETAKCEQQMAKVQKLEESLLATEKVISSLEKSRDSDKKVVADLMNQIQELRTSVCEKTETIDTLKQELKDINCKYNSALVDREESRVLIKKQEVDILDLKETLRLRILSEDIERDMLCEDLAHATEQLNMLTEASKKHSGLLQSAQEELTKKEALIQELQHKLNQKKEEVEQKKNEYNFKMRQLEHVMDSAAEDPQSPKTPPHFQTHLAKLLETQEQEIEDGRASKTSLEHLVTKLNEDREVKNAEILRMKEQLREMENLRLESQQLIEKNWLLQGQLDDIKRQKENSDQNHPDNQQLKNEQEESIKERLAKSKIVEEMLKMKADLEEVQSALYNKEMECLRMTDEVERTQTLESKAFQEKEQLRSKLEEMYEERERTSQEMEMLRKQVECLAEENGKLVGHQNLHQKIQYVVRLKKENVRLAEETEKLRAENVFLKEKKRSES
On to B1, for which the binding result is reported as “binds”.
